Values from PubChem BioAssay AID1508597 (Cure First, 2020).

Test: 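Genes whose silencing sensitises or protects ovarian cancer cells against rucaparib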 (primary screen)
Cell system: human ovarian carcinoma lines grown from tumours: OCI-P5x (papillary serous) and OCI-C5x (clear cell)
Reagent: siRNA pool against human genes, 1.25 pmol siRNA per well
Duration: 72 h or 96 h, depending on the cell culture
Conditions: rucaparib 20 µM (about IC30) or vehicle, present until read-out
Rucaparib or vehicle: Vehicle
Cell line: OCI-P5x (serous)
Measured: 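ATP luminescence measured at 72 or 96 h according to the culture, then normalised and expressed as percent viability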
Scale: viability, normalised: higher = more viable cells remaining
Rule for the call: 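a well counts as a hit if its normalised viability is under 80 percent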
Calls: active = viability under 80%; inactive = viability 80% or more
Shown is a random part of the about 2,100 reagents, under one of the conditions tested. 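Calls flag viability under 80% in either arm, not effects specific to rucaparib; the reference for percent is not stated.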 A reagent listed more than once was tested more than once; the source does not tell the runs apart. The record does not give: the 100% reference.

| Target gene | PubChem SID | technical replicate | viability, normalised (%) | call |
| --- | --- | --- | --- | --- |
| PFKFB3 (6-phosphofructo-2-kinase/fructose-2,6-biphosphatase 3) | SID405527861 | 1 | 59.4 | active |
| PFKFB3 (6-phosphofructo-2-kinase/fructose-2,6-biphosphatase 3) | SID405527861 | 2 | 49 | active |
| PFKFB3 (6-phosphofructo-2-kinase/fructose-2,6-biphosphatase 3) | SID405527861 | 3 | 52.9 | active |
| WWC2 (WW and C2 domain containing 2) | SID405526633 | 1 | 42.6 | active |
| WWC2 (WW and C2 domain containing 2) | SID405526633 | 2 | 68.5 | active |
| WWC2 (WW and C2 domain containing 2) | SID405526633 | 3 | 66.6 | active |
| BARD1 (BRCA1 associated RING domain 1) | SID405526425 | 1 | 78.3 | active |
| BARD1 (BRCA1 associated RING domain 1) | SID405526425 | 2 | 60 | active |
| BARD1 (BRCA1 associated RING domain 1) | SID405526425 | 3 | 75.9 | active |
| CBX5 (chromobox 5) | SID405528073 | 1 | 74 | active |
| CBX5 (chromobox 5) | SID405528073 | 1 | 68.1 | active |
| CBX5 (chromobox 5) | SID405528073 | 2 | 69 | active |
| CBX5 (chromobox 5) | SID405528073 | 2 | 75.1 | active |
| CBX5 (chromobox 5) | SID405528073 | 3 | 96.7 | inactive |
| CBX5 (chromobox 5) | SID405528073 | 3 | 67 | active |
| ESPL1 (extra spindle pole bodies like 1, separase) | SID405528259 | 1 | 76.9 | active |
| ESPL1 (extra spindle pole bodies like 1, separase) | SID405528259 | 2 | 82.3 | inactive |
| ESPL1 (extra spindle pole bodies like 1, separase) | SID405528259 | 3 | 80.6 | inactive |
| EYA4 (EYA transcriptional coactivator and phosphatase 4) | SID405526771 | 1 | 61.1 | active |
| EYA4 (EYA transcriptional coactivator and phosphatase 4) | SID405526771 | 2 | 70.8 | active |
| EYA4 (EYA transcriptional coactivator and phosphatase 4) | SID405526771 | 3 | 70.3 | active |
| EPHA8 (EPH receptor A8) | SID405527923 | 1 | 67 | active |
| EPHA8 (EPH receptor A8) | SID405527923 | 2 | 64.3 | active |
| EPHA8 (EPH receptor A8) | SID405527923 | 3 | 70.7 | active |
| SRMS | SID405527500 | 1 | 102 | inactive |
| SRMS | SID405527500 | 2 | 99.4 | inactive |
| SRMS | SID405527500 | 3 | 117 | inactive |
| MAPKAPK3 (MAPK activated protein kinase 3) | SID405527573 | 1 | 69.1 | active |
| MAPKAPK3 (MAPK activated protein kinase 3) | SID405527573 | 2 | 16 | active |
| MAPKAPK3 (MAPK activated protein kinase 3) | SID405527573 | 3 | 59.9 | active |
| PTTG2 (pituitary tumor-transforming 2) | SID405527214 | 1 | 59.8 | active |
| PTTG2 (pituitary tumor-transforming 2) | SID405527214 | 2 | 61.4 | active |
| PTTG2 (pituitary tumor-transforming 2) | SID405527214 | 3 | 78.8 | active |
| ING4 (inhibitor of growth family member 4) | SID405526899 | 1 | 69.4 | active |
| ING4 (inhibitor of growth family member 4) | SID405526899 | 2 | 89 | inactive |
| ING4 (inhibitor of growth family member 4) | SID405526899 | 3 | 55.2 | active |

The list goes on; the last 2 above are carried over.
| Target gene | PubChem SID | technical replicate | viability, normalised (%) | call |
| --- | --- | --- | --- | --- |
| ING4 (inhibitor of growth family member 4) | SID405526899 | 2 | 89 | inactive |
| ING4 (inhibitor of growth family member 4) | SID405526899 | 3 | 55.2 | active |
| KDM5B (lysine demethylase 5B) | SID405526938 | 1 | 55.6 | active |
| KDM5B (lysine demethylase 5B) | SID405526938 | 2 | 68.7 | active |
| KDM5B (lysine demethylase 5B) | SID405526938 | 3 | 97.5 | inactive |
| RPS6KC1 (ribosomal protein S6 kinase C1) | SID405527697 | 1 | 69.5 | active |
| RPS6KC1 (ribosomal protein S6 kinase C1) | SID405527697 | 2 | 62.8 | active |
| RPS6KC1 (ribosomal protein S6 kinase C1) | SID405527697 | 3 | 72.5 | active |
| UVRAG (UV radiation resistance associated) | SID405528461 | 1 | 71.5 | active |
| UVRAG (UV radiation resistance associated) | SID405528461 | 2 | 77.9 | active |
| UVRAG (UV radiation resistance associated) | SID405528461 | 3 | 60.3 | active |
| SALL1 (spalt like transcription factor 1) | SID405527270 | 1 | 60 | active |
| SALL1 (spalt like transcription factor 1) | SID405527270 | 2 | 66.1 | active |
| SALL1 (spalt like transcription factor 1) | SID405527270 | 3 | 76.4 | active |
| DYRK2 (dual specificity tyrosine phosphorylation regulated kinase 2) | SID405527876 | 1 | 74.4 | active |
| DYRK2 (dual specificity tyrosine phosphorylation regulated kinase 2) | SID405527876 | 2 | 76 | active |
| DYRK2 (dual specificity tyrosine phosphorylation regulated kinase 2) | SID405527876 | 3 | 73.3 | active |
| CSRNP2 (cysteine and serine rich nuclear protein 2) | SID405526402 | 1 | 75.5 | active |
| CSRNP2 (cysteine and serine rich nuclear protein 2) | SID405526402 | 2 | 77.7 | active |
| CSRNP2 (cysteine and serine rich nuclear protein 2) | SID405526402 | 3 | 71.2 | active |
| CNP (2',3'-cyclic nucleotide 3' phosphodiesterase) | SID405526664 | 1 | 73.8 | active |
| CNP (2',3'-cyclic nucleotide 3' phosphodiesterase) | SID405526664 | 2 | 71.1 | active |
| CNP (2',3'-cyclic nucleotide 3' phosphodiesterase) | SID405526664 | 3 | 70.6 | active |
| DNA2 (DNA replication helicase/nuclease 2) | SID405528407 | 1 | 81.8 | inactive |
| DNA2 (DNA replication helicase/nuclease 2) | SID405528407 | 2 | 77.6 | active |
| DNA2 (DNA replication helicase/nuclease 2) | SID405528407 | 3 | 79.4 | active |
| SRC (SRC proto-oncogene, non-receptor tyrosine kinase) | SID405527376 | 1 | 98.9 | inactive |
| SRC (SRC proto-oncogene, non-receptor tyrosine kinase) | SID405527376 | 2 | 85.4 | inactive |
| SRC (SRC proto-oncogene, non-receptor tyrosine kinase) | SID405527376 | 3 | 99.1 | inactive |
| PRKCA (protein kinase C alpha) | SID405527196 | 1 | 52.1 | active |
| PRKCA (protein kinase C alpha) | SID405527196 | 1 | 115 | inactive |
| PRKCA (protein kinase C alpha) | SID405527196 | 2 | 58.2 | active |
| PRKCA (protein kinase C alpha) | SID405527196 | 2 | 115 | inactive |
| PRKCA (protein kinase C alpha) | SID405527196 | 3 | 158 | inactive |
| PRKCA (protein kinase C alpha) | SID405527196 | 3 | 137 | inactive |
| MAPKAPK2 (MAPK activated protein kinase 2) | SID405528547 | 1 | 47.2 | active |
| MAPKAPK2 (MAPK activated protein kinase 2) | SID405528547 | 2 | 72.7 | active |
| MAPKAPK2 (MAPK activated protein kinase 2) | SID405528547 | 3 | 56.2 | active |
| TTBK2 (tau tubulin kinase 2) | SID405527723 | 1 | 83 | inactive |
| TTBK2 (tau tubulin kinase 2) | SID405527723 | 2 | 77.1 | active |
| TTBK2 (tau tubulin kinase 2) | SID405527723 | 3 | 67.9 | active |
